For 4 molecules, binding results are on record in article PMC4332150.

The chains behind the UniProt entries cited, without tags or fusion partners.
UniProt P19838: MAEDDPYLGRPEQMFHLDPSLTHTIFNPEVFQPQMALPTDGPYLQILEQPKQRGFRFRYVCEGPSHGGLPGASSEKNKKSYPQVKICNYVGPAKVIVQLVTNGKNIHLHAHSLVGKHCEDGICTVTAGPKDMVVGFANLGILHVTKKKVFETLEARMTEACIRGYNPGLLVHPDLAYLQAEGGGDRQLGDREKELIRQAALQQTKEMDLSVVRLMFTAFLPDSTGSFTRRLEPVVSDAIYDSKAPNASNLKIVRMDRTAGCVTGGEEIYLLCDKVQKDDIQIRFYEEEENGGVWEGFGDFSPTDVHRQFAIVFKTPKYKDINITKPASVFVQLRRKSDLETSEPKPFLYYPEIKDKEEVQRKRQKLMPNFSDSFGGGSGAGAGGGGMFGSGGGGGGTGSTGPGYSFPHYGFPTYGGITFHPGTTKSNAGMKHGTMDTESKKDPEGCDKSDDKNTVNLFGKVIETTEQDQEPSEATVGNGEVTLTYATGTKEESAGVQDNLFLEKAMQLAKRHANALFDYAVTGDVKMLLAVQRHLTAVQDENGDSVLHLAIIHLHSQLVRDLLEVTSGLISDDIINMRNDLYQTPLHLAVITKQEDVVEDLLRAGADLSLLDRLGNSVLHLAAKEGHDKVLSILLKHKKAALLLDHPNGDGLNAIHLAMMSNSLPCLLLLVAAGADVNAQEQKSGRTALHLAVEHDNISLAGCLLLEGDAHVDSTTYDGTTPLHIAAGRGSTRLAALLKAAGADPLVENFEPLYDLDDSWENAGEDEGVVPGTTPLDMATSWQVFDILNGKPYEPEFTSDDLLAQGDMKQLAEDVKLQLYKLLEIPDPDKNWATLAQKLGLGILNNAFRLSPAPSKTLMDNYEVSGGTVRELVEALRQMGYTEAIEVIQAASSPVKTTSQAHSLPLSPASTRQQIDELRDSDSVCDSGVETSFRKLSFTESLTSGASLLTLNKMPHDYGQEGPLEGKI
UniProt P16220: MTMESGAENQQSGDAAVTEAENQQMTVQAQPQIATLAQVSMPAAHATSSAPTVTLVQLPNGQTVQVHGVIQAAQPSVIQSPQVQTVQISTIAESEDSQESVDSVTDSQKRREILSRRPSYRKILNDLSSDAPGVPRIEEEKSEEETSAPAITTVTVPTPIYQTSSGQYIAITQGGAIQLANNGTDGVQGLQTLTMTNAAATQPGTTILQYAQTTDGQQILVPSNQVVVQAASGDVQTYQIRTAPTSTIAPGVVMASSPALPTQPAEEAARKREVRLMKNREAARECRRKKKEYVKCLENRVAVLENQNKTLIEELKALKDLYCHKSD
UniProt P35453: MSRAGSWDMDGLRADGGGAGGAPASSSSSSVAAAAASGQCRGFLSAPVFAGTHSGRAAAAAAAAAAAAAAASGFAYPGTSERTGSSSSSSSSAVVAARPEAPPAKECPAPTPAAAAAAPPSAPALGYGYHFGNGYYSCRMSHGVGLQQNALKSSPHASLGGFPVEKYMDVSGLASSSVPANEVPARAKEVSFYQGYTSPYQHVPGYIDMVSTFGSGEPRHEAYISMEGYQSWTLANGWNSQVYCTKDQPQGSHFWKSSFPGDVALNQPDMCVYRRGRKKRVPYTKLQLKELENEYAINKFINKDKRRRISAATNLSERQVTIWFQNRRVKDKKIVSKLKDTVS

No constants are given. Whether binding was seen depends on the method and setting. Binding seen in cells or lysates may run through a third protein. Here binding means that the protein was enriched with, or labelled near, the bait; the list need not be complete. For some assays here: No binding means not detected with the bait. For some assays here: Sequences can lack the tags named with a protein.

For assay [1], the target named is T1, JUN (endogenous) (human (endogenous in HEK293T)), P05412.
T1 chain: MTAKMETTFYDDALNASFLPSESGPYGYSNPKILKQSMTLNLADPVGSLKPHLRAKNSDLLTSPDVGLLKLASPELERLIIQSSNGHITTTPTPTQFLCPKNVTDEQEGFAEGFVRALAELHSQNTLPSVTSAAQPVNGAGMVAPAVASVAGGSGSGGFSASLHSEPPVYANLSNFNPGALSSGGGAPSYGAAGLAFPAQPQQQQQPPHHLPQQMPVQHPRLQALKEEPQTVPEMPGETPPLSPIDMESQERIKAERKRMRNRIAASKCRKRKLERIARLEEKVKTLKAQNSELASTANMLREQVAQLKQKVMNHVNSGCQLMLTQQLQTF
The assay can be described thus: affinity purification with mass spectrometry; AP/MS with antibodies against endogenous JUN; chromatin fraction. The note with it: remark: other sources report otherwise.

Assay [2] concerns the target T1, JUN (endogenous) (human (endogenous in …)). The assay can be described thus: affinity purification with mass spectrometry; AP/MS with antibodies against endogenous JUN; soluble fraction. To be noted: remark: other sources report otherwise.
For assay [3], the target named is SFB-tagged NF-κB1 (human) (UniProt P19838). The assay can be described thus: affinity purification with mass spectrometry; same TAP/MS of SFB-tagged bait from HEK293T; the fraction in which the hit was found is not given.
The target of assay [4] is SFB-tagged CREB1 (human) (UniProt P16220). Kind of assay: affinity purification with mass spectrometry; TAP (streptavidin beads, biotin elution, S-protein beads; NETN buffer) of C-terminally SFB-tagged bait from HEK293T; soluble fraction (supernatant of the NETN lysate); forward and reciprocal purifications.
Assay [5] addresses T2, ATF3 as bait of the reciprocal TAP/MS (UniProt P18847).
T2 sequence: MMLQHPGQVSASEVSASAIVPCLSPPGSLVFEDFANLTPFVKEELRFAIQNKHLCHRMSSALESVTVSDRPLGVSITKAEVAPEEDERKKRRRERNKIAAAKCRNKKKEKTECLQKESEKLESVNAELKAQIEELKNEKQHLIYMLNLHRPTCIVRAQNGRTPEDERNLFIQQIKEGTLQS
The assay is described as above.

Assay [6] deals with T3, SFB-tagged ATF1 (UniProt P18846).
T3 sequence: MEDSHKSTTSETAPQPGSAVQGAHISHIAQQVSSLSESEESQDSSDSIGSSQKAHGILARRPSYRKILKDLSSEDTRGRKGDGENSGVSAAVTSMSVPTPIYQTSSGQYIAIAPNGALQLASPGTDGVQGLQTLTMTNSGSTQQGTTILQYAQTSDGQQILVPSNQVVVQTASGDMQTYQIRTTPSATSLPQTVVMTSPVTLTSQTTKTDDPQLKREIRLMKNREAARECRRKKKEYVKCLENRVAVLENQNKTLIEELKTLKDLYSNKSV
The description is as above.

Assay [7] addresses JUN (endogenous) (human (endogenous in HEK293T)) (UniProt P05412). Kind of assay: affinity purification with mass spectrometry; AP/MS with antibodies against endogenous JUN; soluble fraction.
The target is the same in assay [8]. The assay can be described thus: affinity purification with mass spectrometry; AP/MS with antibodies against endogenous JUN; chromatin fraction.
Assay [9] has as its target SFB-tagged CREB1 (human) (UniProt P16220). The assay can be described thus: affinity purification with mass spectrometry; TAP (streptavidin beads, biotin elution, S-protein beads; NETN buffer) of C-terminally SFB-tagged bait from HEK293T; chromatin fraction (pellet after NETN lysis, digested with TurboNuclease); forward and reciprocal purifications; some baits also after drug treatment.

For assay [10], the target named is HOXD13 as bait of the reciprocal TAP/MS (UniProt P35453). Described as above.
Assay [11] deals with T2, ATF3 as bait of the reciprocal TAP/MS. The description is as above.
For assay [12], the target named is SFB-tagged JUN (human) (UniProt P05412). The description is as above.
Assay [13] concerns the target T3, SFB-tagged ATF1. The assay is described as above.
The target in assay [14] is T4, SFB-tagged FOXN2 (human) (UniProt P32314).
T4 sequence: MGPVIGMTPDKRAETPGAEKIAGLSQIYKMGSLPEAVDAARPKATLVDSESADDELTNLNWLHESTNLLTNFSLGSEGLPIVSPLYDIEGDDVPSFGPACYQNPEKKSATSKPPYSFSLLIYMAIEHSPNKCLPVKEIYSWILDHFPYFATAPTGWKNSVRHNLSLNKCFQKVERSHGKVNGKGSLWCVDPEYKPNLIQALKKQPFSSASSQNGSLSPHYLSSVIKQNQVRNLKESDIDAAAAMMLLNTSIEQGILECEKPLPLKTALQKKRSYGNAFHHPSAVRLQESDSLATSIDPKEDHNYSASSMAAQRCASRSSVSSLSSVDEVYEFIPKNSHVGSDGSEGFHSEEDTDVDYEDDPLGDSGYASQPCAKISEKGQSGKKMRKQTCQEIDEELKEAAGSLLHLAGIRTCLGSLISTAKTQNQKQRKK
Described as above.

B1: ATF2 (endogenous), P15336 1-505 (protein)
chain: MKFKLHVNSARQYKDLWNMSDDKPFLCTAPGCGQRFTNEDHLAVHKHKHEMTLKFGPARNDSVIVADQTPTPTRFLKNCEEVGLFNELASPFENEFKKASEDDIKKMPLDLSPLATPIIRSKIEEPSVVETTHQDSPLPHPESTTSDEKEVPLAQTAQPTSAIVRPASLQVPNVLLTSSDSSVIIQQAVPSPTSSTVITQAPSSNRPIVPVPGPFPLLLHLPNGQTMPVAIPASITSSNVHVPAAVPLVRPVTMVPSVPGIPGPSSPQPVQSEAKMRLKAALTQQHPPVTNGDTVKGHGSGLVRTQSEESRPQSLQQPATSTTETPASPAHTTPQTQSTSGRRRRAANEDPDEKRRKFLERNRAAASRCRQKRKVWVQSLEKKAEDLSSLNGQLQSEVTLLRNEVAQLKQLLLAHKDCPVTAMQKKSGYHTADKDDSSEDISVPSSPHTEAIQHSSVSTSNGVSSTSKAEAVATSVLTQMADQSTEPALSQIVMAPSSQSQPSGS
For the molecule B1, the binding result in [1] and in [2] was “binds” each time.

B2: RELB (endogenous) (protein, UniProt Q01201 1-579)
chain: MLRSGPASGPSVPTGRAMPSRRVARPPAAPELGALGSPDLSSLSLAVSRSTDELEIIDEYIKENGFGLDGGQPGPGEGLPRLVSRGAASLSTVTLGPVAPPATPPPWGCPLGRLVSPAPGPGPQPHLVITEQPKQRGMRFRYECEGRSAGSILGESSTEASKTLPAIELRDCGGLREVEVTACLVWKDWPHRVHPHSLVGKDCTDGICRVRLRPHVSPRHSFNNLGIQCVRKKEIEAAIERKIQLGIDPYNAGSLKNHQEVDMNVVRICFQASYRDQQGQMRRMDPVLSEPVYDKKSTNTSELRICRINKESGPCTGGEELYLLCDKVQKEDISVVFSRASWEGRADFSQADVHRQIAIVFKTPPYEDLEIVEPVTVNVFLQRLTDGVCSEPLPFTYLPRDHDSYGVDKKRKRGMPDVLGELNSSDPHGIESKRRKKKPAILDHFLPNHGSGPFLPPSALLPDPDFFSGTVSLPGLEPPGGPDLLDDGFAYDPTAPTLFTMLDLLPPAPPHASAVVCSGGAGAVVGETPGPEPLTLDSYQAPGPGDGGTASLVGSNMFPNHYREAAFGGGLLSPGPEAT
As for B2, in assay [3], the binding result was “binds”.

B3: NFATC1 (endogenous) (protein, UniProt O95644 1-943)
chain: MPSTSFPVPSKFPLGPAAAVFGRGETLGPAPRAGGTMKSAEEEHYGYASSNVSPALPLPTAHSTLPAPCHNLQTSTPGIIPPADHPSGYGAALDGGPAGYFLSSGHTRPDGAPALESPRIEITSCLGLYHNNNQFFHDVEVEDVLPSSKRSPSTATLSLPSLEAYRDPSCLSPASSLSSRSCNSEASSYESNYSYPYASPQTSPWQSPCVSPKTTDPEEGFPRGLGACTLLGSPRHSPSTSPRASVTEESWLGARSSRPASPCNKRKYSLNGRQPPYSPHHSPTPSPHGSPRVSVTDDSWLGNTTQYTSSAIVAAINALTTDSSLDLGDGVPVKSRKTTLEQPPSVALKVEPVGEDLGSPPPPADFAPEDYSSFQHIRKGGFCDQYLAVPQHPYQWAKPKPLSPTSYMSPTLPALDWQLPSHSGPYELRIEVQPKSHHRAHYETEGSRGAVKASAGGHPIVQLHGYLENEPLMLQLFIGTADDRLLRPHAFYQVHRITGKTVSTTSHEAILSNTKVLEIPLLPENSMRAVIDCAGILKLRNSDIELRKGETDIGRKNTRVRLVFRVHVPQPSGRTLSLQVASNPIECSQRSAQELPLVEKQSTDSYPVVGGKKMVLSGHNFLQDSKVIFVEKAPDGHHVWEMEAKTDRDLCKPNSLVVEIPPFRNQRITSPVHVSFYVCNGKRKRSQYQRFTYLPANVPIIKTEPTDDYEPAPTCGPVSQGLSPLPRPYYSQQLAMPPDPSSCLVAGFPPCPQRSTLMPAAPGVSPKLHDLSPAAYTKGVASPGHCHLGLPQPAGEAPAVQDVPRPVATHPGSPGQPPPALLPQQVSAPPSSSCPPGLEHSLCPSSPSPPLPPATQEPTCLQPCSPACPPATGRPQHLPSTVRRDESPTAGPRLLPEVHEDGSPNLAPIPVTVKREPEELDQLYLDDVNEIIRNDLSSTSTHS
Take B3: the binding result in assay [4] is recorded as “no binding (only in the soluble fraction)”; in assay [5], “no binding (only in the soluble fraction)”; in assay [6] it was “no binding (only in the soluble fraction)”; in assay [7] it was “no binding (only in the soluble fraction)”; in assay [8], “binds”; in assay [9], “binds”. The binding result in [10], in [11], in assay [12] and in assay [13] was “binds” throughout.

B4: RFX1 (endogenous) (protein, UniProt P22670 1-979)
chain: MATQAYTELQAAPPPSQPPQAPPQAQPQPPPPPPPAAPQPPQPPTAAATPQPQYVTELQSPQPQAQPPGGQKQYVTELPAVPAPSQPTGAPTPSPAPQQYIVVTVSEGAMRASETVSEASPGSTASQTGVPTQVVQQVQGTQQRLLVQTSVQAKPGHVSPLQLTNIQVPQQALPTQRLVVQSAAPGSKGGQVSLTVHGTQQVHSPPEQSPVQANSSSSKTAGAPTGTVPQQLQVHGVQQSVPVTQERSVVQATPQAPKPGPVQPLTVQGLQPVHVAQEVQQLQQVPVPHVYSSQVQYVEGGDASYTASAIRSSTYSYPETPLYTQTASTSYYEAAGTATQVSTPATSQAVASSGSMPMYVSGSQVVASSTSTGAGASNSSGGGGSGGGGGGGGGGGGGGSGSTGGGGSGAGTYVIQGGYMLGSASQSYSHTTRASPATVQWLLDNYETAEGVSLPRSTLYCHYLLHCQEQKLEPVNAASFGKLIRSVFMGLRTRRLGTRGNSKYHYYGLRIKASSPLLRLMEDQQHMAMRGQPFSQKQRLKPIQKMEGMTNGVAVGQQPSTGLSDISAQVQQYQQFLDASRSLPDFTELDLQGKVLPEGVGPGDIKAFQVLYREHCEAIVDVMVNLQFTLVETLWKTFWRYNLSQPSEAPPLAVHDEAEKRLPKAILVLLSKFEPVLQWTKHCDNVLYQGLVEILIPDVLRPIPSALTQAIRNFAKSLESWLTHAMVNIPEEMLRVKVAAAGAFAQTLRRYTSLNHLAQAARAVLQNTAQINQMLSDLNRVDFANVQEQASWVCRCEDRVVQRLEQDFKVTLQQQNSLEQWAAWLDGVVSQVLKPYQGSAGFPKAAKLFLLKWSFYSSMVIRDLTLRSAASFGSFHLIRLLYDEYMYYLIEHRVAQAKGETPIAVMGEFANLATSLNPLDPDKDEEEEEEEESEDELPQDISLAAGGESPALGPETLEPPAKLARTDARGLFVQALPSS
Regarding B4, in assay [14], the binding entry is on record as “binds”.
